# Some of these results come from one statement about several compounds together.
# Tested on: pain
# Test: 7 volunteer pain relief study
# Type: in vivo, human
# Conditions: summary of the 7 volunteer study; singly vs combination in the same patients
# From the text: All of the above formulations contain magnesium. Patients received the combination of CBD and curcumin in the following formulation comprising: (a) hemp derived terpiniods and oil; (b) turmeric as curcumin and; (c) magnesium.
compound,measurement,value
"COc1cc(/C=C/C(=O)CC(=O)/C=C/c2ccc(O)c(OC)c2)ccc1O [Curcumin, curcumin]",duration of pain relief,no more than 8 hours

# From US10213391B2, “Pharmaceutical compositions comprising hemp and turmeric to treat pain and inflammation” (priority 2014, dated 2019)
